Source: PubChem BioAssay AID493246 (Drosophila RNAi Screening Center, 2011)
The deposit covers about 21,000 reagents; shown is a random part of those that have a named target and a result. Of all reagents, 429 (2%) got an active call. 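Values are raw and not normalised between plates; calls rest on per-plate z-scores that were not deposited.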 A number with no mark means an inactive call. Reagent sequences are not shown. The record does not give: the amount of reagent, the time to read-out.

- Screen: 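Genome-wide search for dsRNAs that reduce cell number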 (primary screen)
- System: Drosophila Kc and S2R+ cells
- Reagent: long dsRNA against Drosophila genes
- Measured: 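Raw, unnormalised count of remaining cells in each well; per-plate z-scores of cell number underlie the calls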
- Reading the numbers: Kc cell number and S2R+ cell number: higher = more cells remaining
- Rule for the call: 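Counted as a hit if cell number falls by a z-score of at least 3 within its plate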

CG11474 (GeneID 37514) [DRSC04112] showed Kc cell number, rep 1 = 1.44e6; Kc cell number, rep 2 = 1.50e6; S2R+ cell number, rep 1 = 1.10e6; S2R+ cell number, rep 2 = 1.10e6.
Against Epp (GeneID 42840) [DRSC14607], the entry reads Kc cell number, rep 1 = 1.58e6; Kc cell number, rep 2 = 1.60e6; S2R+ cell number, rep 1 = 1.22e6; S2R+ cell number, rep 2 = 1.26e6.
For CG13872 (GeneID 37273) [DRSC06431], the entry reads Kc cell number, rep 1 = 1.53e6; Kc cell number, rep 2 = 1.60e6; S2R+ cell number, rep 1 = 1.19e6; S2R+ cell number, rep 2 = 1.30e6.
scu (GeneID 32789) [DRSC20369] showed Kc cell number, rep 1 = 1.42e6; Kc cell number, rep 2 = 1.38e6; S2R+ cell number, rep 1 = 1.07e6; S2R+ cell number, rep 2 = 1.09e6.
Ndfip (GeneID 326197) [DRSC11201] showed Kc cell number, rep 1 = 1.52e6; Kc cell number, rep 2 = 1.57e6; S2R+ cell number, rep 1 = 1.23e6; S2R+ cell number, rep 2 = 1.31e6.
CG15550 (GeneID 43666) [DRSC15088] gave Kc cell number, rep 1 = 1.46e6; Kc cell number, rep 2 = 1.47e6; S2R+ cell number, rep 1 = 1.03e6; S2R+ cell number, rep 2 = 1.17e6.
CG5390 (GeneID 34383) [DRSC02855] gave Kc cell number, rep 1 = 1.50e6; Kc cell number, rep 2 = 1.60e6; S2R+ cell number, rep 1 = 1.20e6; S2R+ cell number, rep 2 = 1.33e6.
With knock-down of CG30373 (GeneID 246573) [DRSC05081] the results were Kc cell number, rep 1 = 1.49e6; Kc cell number, rep 2 = 1.60e6; S2R+ cell number, rep 1 = 9.61e5; S2R+ cell number, rep 2 = 1.09e6.
Against CG34462 (GeneID 5740319) [DRSC10768] the deposit lists Kc cell number, rep 1 = 1.48e6; Kc cell number, rep 2 = 1.68e6; S2R+ cell number, rep 1 = 1.05e6; S2R+ cell number, rep 2 = 1.15e6.
With knock-down of eIF2A (GeneID 40431) [DRSC11825] the results were Kc cell number, rep 1 = 1.59e6; Kc cell number, rep 2 = 1.56e6; S2R+ cell number, rep 1 = 1.37e6; S2R+ cell number, rep 2 = 1.31e6.
For Adsl (GeneID 42051) [DRSC15500], the values are Kc cell number, rep 1 = 1.45e6; Kc cell number, rep 2 = 1.52e6; S2R+ cell number, rep 1 = 1.08e6; S2R+ cell number, rep 2 = 1.13e6.
For Shmt (GeneID 31524) [DRSC18264], the values are Kc cell number, rep 1 = 1.53e6; Kc cell number, rep 2 = 1.52e6; S2R+ cell number, rep 1 = 1.05e6; S2R+ cell number, rep 2 = 1.17e6.
After knock-down of CG7140 (GeneID 40445) [DRSC11799], the screen gave Kc cell number, rep 1 = 1.33e6; Kc cell number, rep 2 = 1.28e6; S2R+ cell number, rep 1 = 1.27e6; S2R+ cell number, rep 2 = 1.37e6.
With knock-down of wtrw (GeneID 40931) [DRSC14241], the record shows Kc cell number, rep 1 = 1.58e6; Kc cell number, rep 2 = 1.66e6; S2R+ cell number, rep 1 = 1.16e6; S2R+ cell number, rep 2 = 1.29e6.
Depletion of wtrw (GeneID 40931) [DRSC15278] came out at: Kc cell number, rep 1 = 1.46e6; Kc cell number, rep 2 = 1.70e6; S2R+ cell number, rep 1 = 9.48e5; S2R+ cell number, rep 2 = 1.08e6.
Against S6k (GeneID 38654) [DRSC11276] the deposit lists Kc cell number, rep 1 = 1.43e6; Kc cell number, rep 2 = 1.32e6; S2R+ cell number, rep 1 = 1.26e6; S2R+ cell number, rep 2 = 1.28e6.
Against Lipt2 (GeneID 40565) [DRSC12338], the entry reads Kc cell number, rep 1 = 1.31e6; Kc cell number, rep 2 = 1.32e6; S2R+ cell number, rep 1 = 1.08e6; S2R+ cell number, rep 2 = 1.15e6.
Depletion of ND-SGDH (GeneID 46260) [DRSC11102] came out at: Kc cell number, rep 1 = 1.31e6; Kc cell number, rep 2 = 1.41e6; S2R+ cell number, rep 1 = 1.20e6; S2R+ cell number, rep 2 = 1.26e6.
Knock-down of Ttc19 (GeneID 35172) [DRSC02474] gave: Kc cell number, rep 1 = 1.55e6; Kc cell number, rep 2 = 1.56e6; S2R+ cell number, rep 1 = 1.10e6; S2R+ cell number, rep 2 = 3.17e5.
For CG15144 (GeneID 35063) [DRSC02445], the values are Kc cell number, rep 1 = 1.50e6; Kc cell number, rep 2 = 1.56e6; S2R+ cell number, rep 1 = 1.24e6; S2R+ cell number, rep 2 = 1.36e6.
With knock-down of CG6204 (GeneID 42877) [DRSC15991] the results were Kc cell number, rep 1 = 1.51e6; Kc cell number, rep 2 = 1.68e6; S2R+ cell number, rep 1 = 1.14e6; S2R+ cell number, rep 2 = 1.15e6.
CG43980 (GeneID 2768995) [DRSC11500] showed Kc cell number, rep 1 = 1.49e6; Kc cell number, rep 2 = 1.57e6; S2R+ cell number, rep 1 = 1.15e6; S2R+ cell number, rep 2 = 1.33e6.
With knock-down of CG43980 (GeneID 2768995) [DRSC11646], the record shows Kc cell number, rep 1 = 1.29e6; Kc cell number, rep 2 = 1.22e6; S2R+ cell number, rep 1 = 1.28e6; S2R+ cell number, rep 2 = 1.36e6.
After knock-down of CG14546 (GeneID 43142) [DRSC14890], the record shows Kc cell number, rep 1 = 1.46e6; Kc cell number, rep 2 = 1.45e6; S2R+ cell number, rep 1 = 9.80e5; S2R+ cell number, rep 2 = 1.10e6.
Silencing of CG8314 (GeneID 36757) [DRSC07144] gave: Kc cell number, rep 1 = 1.34e6; Kc cell number, rep 2 = 1.37e6; S2R+ cell number, rep 1 = 1.18e6; S2R+ cell number, rep 2 = 1.16e6.
ITP (GeneID 37921) [DRSC04222] gave Kc cell number, rep 1 = 1.79e6; Kc cell number, rep 2 = 1.91e6; S2R+ cell number, rep 1 = 1.28e6; S2R+ cell number, rep 2 = 1.39e6.
Golgin245 (GeneID 37702) [DRSC04374] scored Kc cell number, rep 1 = 1.50e6; Kc cell number, rep 2 = 1.66e6; S2R+ cell number, rep 1 = 1.09e6; S2R+ cell number, rep 2 = 1.17e6.

4 entries already listed, arranged by “Kc cell number, rep 1”, high to low:
Ttc19 (GeneID 35172) [DRSC02474] — Kc cell number, rep 1 = 1.55e6; Kc cell number, rep 2 = 1.56e6; S2R+ cell number, rep 1 = 1.10e6; S2R+ cell number, rep 2 = 3.17e5
S6k (GeneID 38654) [DRSC11276] — Kc cell number, rep 1 = 1.43e6; Kc cell number, rep 2 = 1.32e6; S2R+ cell number, rep 1 = 1.26e6; S2R+ cell number, rep 2 = 1.28e6
Lipt2 (GeneID 40565) [DRSC12338] — Kc cell number, rep 1 = 1.31e6; Kc cell number, rep 2 = 1.32e6; S2R+ cell number, rep 1 = 1.08e6; S2R+ cell number, rep 2 = 1.15e6
ND-SGDH (GeneID 46260) [DRSC11102] — Kc cell number, rep 1 = 1.31e6; Kc cell number, rep 2 = 1.41e6; S2R+ cell number, rep 1 = 1.20e6; S2R+ cell number, rep 2 = 1.26e6
